Laboratory results published in PubChem BioAssay AID588499 (NMMLSC, 2011).
The whole screen tested about 360,000 compounds, of which about 610 (0.17%) were called active. Inconclusive results, whose numbers are uncertain, are shown with a selection of clear calls. No stated cut-off is given here; in the data, active means inhibition above about 30%; inconclusive means no clear call, values can overlap the other calls; inactive means below that.

test system: Botulinum neurotoxin type A light chain protease (Clostridium botulinum A str. ATCC 3502); assay: blockers of BoNT/A LC substrate cleavage – biochemical, flow cytometry, MLPCN library, primary screen (AID 588499); conditions: multiplex microsphere protease substrate cleavage, at 10 µM, active compounds read high; further: plate controls were buffer without enzyme for full effect and enzyme alone for no effect

Row | Structure (SMILES) | inhibition
1 | O=C(NNC(=O)c1c(F)cccc1F)c1ccccc1OC(F)(F)F | inconclusive: -5.3%
2 | O=C1C=C(N(CCO)CCO)C2(CCCCC2)O1 | inconclusive: -2.4%
3 | CCCCN1C(=O)C(=O)N(CC(=O)c2ccc3c(c2)OCO3)C1=O | inactive: 1%
4 | CC1CC(C)CN(C2CCCCC2NS(=O)(=O)c2ccc(Cl)cc2)C1 (stereo not given) | inactive: 0.2%
5 | CCOC(=O)c1nn(-c2ccc(C)cc2)cc1C(=O)c1ccccc1 | inconclusive: 3.7%
6 | CCN(CC)c1ccc2cc(-c3nc4ccccc4[nH]3)c(=O)oc2c1 | active: 33.3%
7 | CCN(CC)c1ccc(NC(=O)c2ccco2)cc1 | inconclusive: 2.6%
8 | COC(=O)CNC(=O)COC(=O)c1cc(Cl)cc(Cl)c1N | inactive: 0.4%
9 | COCCn1c(SCC(=O)Nc2cccc(C)n2)nnc1-c1ccco1 | inactive: -0.3%
10 | Cn1c(-c2sc3cc(C(F)(F)F)cnc3c2-c2cccs2)n[nH]c1=S | inactive: -0.5%
11 | COC(=O)c1ccc(C#Cc2ccccc2)o1 | inactive: 0.2%
12 | Cc1ccnc(NC(=O)CCCNC(=O)c2ccc(Cl)cc2)c1 | inconclusive: -0.1%
13 | CCCSc1nnc(C(C)C)n1N | inconclusive: 1.1%
14 | O=C(NCc1ccco1)c1ccccc1Br | inactive: -0.1%
15 | COc1ccccc1N1CCN(S(=O)(=O)c2cc(C(F)(F)F)cc(C(F)(F)F)c2)CC1 | inconclusive: -6.3%
16 | O=S(=O)(NCC1CCCO1)c1ccc(Cl)c(C(F)(F)F)c1 (stereo not given) | inconclusive: 6.4%
17 | COc1ccc(C(C)(C)NC(=O)C2CCC(=O)N(CCCN3CCCC3=O)C2)cc1 (stereo not given) | inactive: -0.5%
18 | O=C(NCC1CCCCC1)c1csc([C@@H]2O[C@H](CO)[C@H](O)[C@H](O)[C@H]2O)n1 | inactive: 0%
19 | Cc1ccc(S(=O)(=O)N2[C@@H](c3ccc(Br)cc3)C(C(=O)O)=CC[C@H]2c2ccc3c(c2)OCO3)cc1 | inactive: -0.4%
20 | CC(=O)Nc1cccc(OCCCNC(=O)C2CCC2)c1 | inconclusive: 2.2%

Rewritten as tab-separated lines: part of the list above.
Row	Structure (SMILES)	inhibition
14	O=C(NCc1ccco1)c1ccccc1Br	inactive: -0.1%
15	COc1ccccc1N1CCN(S(=O)(=O)c2cc(C(F)(F)F)cc(C(F)(F)F)c2)CC1	inconclusive: -6.3%
16	O=S(=O)(NCC1CCCO1)c1ccc(Cl)c(C(F)(F)F)c1 (stereo not given)	inconclusive: 6.4%

Next part

Row | Structure (SMILES) | inhibition
21 | COc1ccc(N(CC(=O)N2CCc3ccccc32)S(=O)(=O)c2c(C)n[nH]c2C)cc1 | inconclusive: 10.1%
22 | Cc1ccc(NC(=O)COC(=O)CN2CCSC2=O)cc1Cl | inactive: -0.3%
23 | Cn1c(CCNC(=O)c2cccs2)nnc1SCC(=O)N1CCN(c2ccccc2)CC1 | inconclusive: 2.4%
24 | CC1(C)C(=O)OC(c2ccccc2)C(C)(C)C1=O (stereo not given) | inconclusive: 0.6%
25 | C=Cn1cc[n+](CC(=O)c2ccc(Cl)c(Cl)c2)c1 | inactive: 3.6%
26 | Cc1c(C(=O)Nc2ccncc2)oc2c1C(=O)CC(C)(C)C2 | inconclusive: 4.9%
27 | Cc1ccccc1C(=O)N=c1ccn(-c2nc3ccccc3nc2NS(=O)(=O)c2ccc(F)cc2)cc1 | inactive: 8%
28 | CCN1C(c2ccccc2)=C(c2ccccc2)S/C1=C/C=C1\SC(=S)N(C)C1=O | active: 141%
29 | Cc1ccc(Nc2nc(N)nc(CN3CCN(c4ccccc4)CC3)n2)cc1Cl | inconclusive: 2.2%
30 | COc1cc2c(cc1OC)C(O)C(O)(CO)C(C(=O)O)C2c1cc(OC)c(OC)c(OC)c1 (stereo not given) | inactive: 0.1%
31 | CCN1/C(=C/c2ccc3ccccc3[n+]2CC)C=Cc2ccccc21 | inactive: 2.3%
32 | O=S(=O)(Nc1ncccc1O)c1ccc(Cl)cc1 | inconclusive: -0.6%
33 | CCCNC(=S)NC1CC2CCCC(C1)N2CC(C)C (stereo not given) | inconclusive: -2.3%
34 | COc1ccc(CCNC(=O)c2nnn(CC(=O)Nc3ccc(C)cc3C)c2N)cc1OC | inactive: -1.9%
35 | O=C(/C=C/c1ccco1)N(Cc1ccc(Cl)cc1)C1CCS(=O)(=O)C1 (stereo not given) | inconclusive: 24.9%
36 | O=C1NC(=O)C2(CCN(c3ccccc3)CC2)C(=O)N1 | inactive: -0.5%
37 | CC1(C)Cc2nc3sc4c(=O)n(CC(=O)NCc5ccco5)cnc4c3cc2CO1 | inconclusive: 8.1%
38 | Cc1ccc(C(=O)/C=C/c2ccc(-c3ccc(C)cc3)o2)cc1 | active: 40.9%
39 | CC(C)(C)C(=O)Nc1ccc(-c2csnn2)cc1 | inconclusive: 8.1%
40 | O=C1CC(N2C(=O)/C(=C/C=C/c3ccccc3)SC2=S)C(=O)N1c1ccccc1 (stereo not given) | active: 64.2%

Row | Structure (SMILES) | inhibition
41 | Cc1nn(Cc2ccccc2)c(Cl)c1C(=O)NCc1ccc(C)n1C | inconclusive: 5.1%
42 | O=C(O)c1ccccc1Nc1ccccc1C(=O)O | inconclusive: -4.8%
43 | O=C(CN1C(=O)C(=O)c2ccccc21)NC1CCCCC1 | inconclusive: 1.4%
44 | COc1ccc(OC)c(-c2nc3cc4ccccc4cc3nc2-c2ccccc2)c1 | active: 62.5%
45 | Clc1ccc(/C=N/N2CCCCC2)cc1 | inconclusive: 13.5%
46 | c1ccc(-c2cccs2)nc1 | inconclusive: 8.4%
47 | Cc1ccc(C2(C(F)(F)F)NC(=O)N3CCCN=C3S2)cc1 (stereo not given) | inactive: -0.7%
48 | Cc1ccc(C(=O)NCCn2cc(SCC(=O)N3CCOCC3)c3ccccc32)cc1 | inactive: -0.5%
49 | O=C(C1CC(=O)N(c2ccc3c(c2)OCCO3)C1)N1CCN(Cc2ccccc2)CC1 (stereo not given) | inconclusive: -10.6%
50 | COc1cccc(C2NC(=S)NC3=C2CCc2ccccc23)c1 (stereo not given) | inactive: -1%
51 | S=C(NCc1ccco1)N/N=C/c1ccncc1 | inconclusive: -65%
52 | CCn1nc(C)cc1-c1nnc(SCC(=O)Nc2ccccc2)n1CCCOC | inconclusive: 1.3%
53 | O=C(CC1SC(=O)N(c2ccccc2)C1=O)Nc1ccc(Cl)cc1 (stereo not given) | inconclusive: -1.7%
54 | c1csc(-c2nnc3ccccn23)c1 | inconclusive: 9.1%
55 | CCc1nc(OCc2ccccc2)c2sc3nc4c(cc3c2n1)COC(C)(C)C4 | inconclusive: 4.1%
56 | O=C(ON=C1CCN(c2ccc([N+](=O)[O-])cc2)CC1)c1ccccc1 | inconclusive: 2.8%
57 | CC1CCCN(C(=O)C(=O)c2cn(CC(=O)N3CCCCCC3)c3ccccc23)C1 (stereo not given) | active: 34.6%
58 | Cc1c(C(c2cccs2)c2c(C)n(C)n(-c3ccccc3)c2=O)c(=O)n(-c2ccccc2)n1C | inconclusive: 6.7%
59 | CC(C)c1nc(Cl)c(C#N)c2c1COC(C)(C)C2 | inconclusive: 8.3%
60 | O=C(NCC(F)(F)F)Nc1ccccn1 | inconclusive: 4.1%
